Earlier results in paper PMC4467547 (Journal of Medicinal Chemistry, 2015).

Test system: healthy kidney cells (Vero)
Conditions: read-out: EC50 cytotoxicity; cited from earlier work

Question: With `O=C(CCCCCCC(=O)Nc1ccccc1)NO` [SAHA, suberoylanilide hydroxamic acid] as the molecule, how does the EC50 read?
Answer: The EC50 was 5.2 ± 0.96 µM.
